Results are given in words; binding and its absence hold for the method and conditions named. Binding seen in cells or lysates may run through a third protein. These calls come from enrichment with a bait or labelling near it, and not all partners need be listed.
T1: Sp_Alp13p (S. pombe) (UniProt O13953)
T1 sequence: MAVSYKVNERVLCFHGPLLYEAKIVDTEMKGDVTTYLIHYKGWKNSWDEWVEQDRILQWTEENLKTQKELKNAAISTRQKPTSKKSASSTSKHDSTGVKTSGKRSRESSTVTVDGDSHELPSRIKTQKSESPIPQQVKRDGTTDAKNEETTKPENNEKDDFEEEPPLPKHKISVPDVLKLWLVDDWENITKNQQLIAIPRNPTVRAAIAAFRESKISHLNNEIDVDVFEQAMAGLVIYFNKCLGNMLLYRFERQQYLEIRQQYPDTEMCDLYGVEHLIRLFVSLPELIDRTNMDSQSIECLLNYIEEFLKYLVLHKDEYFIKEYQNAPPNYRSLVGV

T2: YAF9 (S. pombe) (S. pombe) (UniProt Q10319)
T2 sequence: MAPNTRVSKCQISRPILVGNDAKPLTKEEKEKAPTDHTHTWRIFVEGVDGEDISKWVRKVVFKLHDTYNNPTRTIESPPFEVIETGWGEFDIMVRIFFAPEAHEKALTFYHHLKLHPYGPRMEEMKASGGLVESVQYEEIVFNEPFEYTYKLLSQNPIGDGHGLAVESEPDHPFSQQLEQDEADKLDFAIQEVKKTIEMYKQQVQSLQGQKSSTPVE

T3: Sc_Rpd3p (S. cerevisiae) (UniProt P32561)
T3 sequence: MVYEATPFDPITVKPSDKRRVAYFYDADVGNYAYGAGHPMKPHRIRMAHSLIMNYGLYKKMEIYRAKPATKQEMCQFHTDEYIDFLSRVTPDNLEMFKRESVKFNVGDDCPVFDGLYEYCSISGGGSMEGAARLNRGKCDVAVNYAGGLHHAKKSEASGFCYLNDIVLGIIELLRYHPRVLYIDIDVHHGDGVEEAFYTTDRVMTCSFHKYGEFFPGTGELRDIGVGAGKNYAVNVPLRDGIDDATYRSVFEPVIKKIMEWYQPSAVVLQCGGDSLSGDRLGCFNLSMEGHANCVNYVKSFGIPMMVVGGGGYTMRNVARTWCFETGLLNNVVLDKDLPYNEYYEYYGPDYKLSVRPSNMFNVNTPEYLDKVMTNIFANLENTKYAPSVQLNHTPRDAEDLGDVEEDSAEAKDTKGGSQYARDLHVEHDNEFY

B1: SWC4 (S. pombe) (protein, UniProt O14308 1-437)
chain: MTSADIRDVFELPPPEIGNKQKSKTPTERRPEGISRELYSLLGENSAPLAIYQKKFKEKPKVSHKAKNWVRQPFSISSRKDDFTLHHWVLKSEVDSEASYKFEKFNVPLFIIDYTDEEYQNYLKDEDWNKDETDYLFRLCKDYDLRFFVIADRYDNEKYKKHRTLEDLKDRFYSVSRKILLARNPINSMTAAQSSLLNTMEYNKEQEVIRKKYLIGLASRTPEEVAEEEALFIELKRIETSQAKLLSDRDEVLRLLDEQKGDGGIHEYHTSAGMSSLIQDMINSQRTKNKVEEAIVSSSAPSSGVSSVLNTPTRPHALSTPRIRYGPQPTDPQFGITWHEKLHPGTFVRSQKIPAIKASLSQRVSSVMTELGVSSRLIMPTAKNFEKFVELQNSIVSLLELKRKVDRLSQETEIQDKLSRKRSASPDGSESKKHISQ
B2: Sc_Dot6p (protein, UniProt P40059 1-670)
chain: MSISTSLNSASIHLSSMDTHPQLHSLTRQPHSSSTAMSKNEAQESSPSLPASSSSSTSASASASSKNSSKNPSSWDPQDDLLLRHLKEVKKMGWKDISQYFPNRTPNACQFRWRRLKSGNLKSNKTALIDINTYTGPLKITHGDETANAQQKPSKKVEENVLTEDTAEFTTTSSIPIPSRKTSLPSFHASMSFSQSPSNVTPTTIVSNAASSMPFAPPTLPAALPHHPHQHLHHHPHHKTLKPRSNSHSFTNSLNQDPIVRSNDEEKYGFIPKVFVRSRRSSFAYPQQVAITTTPSSPNSSHVLLSSKSRRGSLANWSRRSSFNVSSNNTSRRSSMILAPNSVSNIFNVNNSGSNTASTSNTNSRRESVIKKEFQQRLNNLSNSGGPTSNNGPIFPNSYTFMDLPHSSSVSSSSTLHKSKRGSFSGHSMKSSCNPTNLWSKDEDALLMENKKRNLSVMELSILLPQRTEVEIQWRLNALSSDADMLSPTHSPQKTLSKKTCPRMFKSGSTTDDDKGSDKEDVMGDGSNDDDEDNVDPLHRAKQSSNKTVFSSSSSNISSKDVSPDPIFSPDPADDSSNTSDAGSRCTITSDTSSSAATMNRTPNSKNPQDIALLNNFRSEAITPRPKPSSTTTSITTETTNNMINHSSSTTTTTNNSPLPSINTIFKDML
B3: Sc_Tod6p (protein, UniProt P34219 1-525)
chain: MTLPKLSSVSVSSGHVSANSHGFSILSKHPHPNNLVHSHSLSHTNAKSHLPISSTSTKENSTNKEEAESLKKNNPSSWDPSDDIKLRHLKEIKNLGWKEIAHHFPNRTPNACQFRWRRLKSGNLKSNKTAVIDINKLFGVYATGDATPSAGTPSAEEAVKEEAVEDEDITAGSSAIEDSPPDFKPLVKPKYMDRKLITQRSTSTFSDHEPQHTKPRKLFVKPRSFSHSITTNTPNVKTAQQTNLSLYNTTSAKTNKAVNSNDYENIGLVPKIIIRSRRNSFIPSTQIPHSTTKTRKNSHSVISSRRSSFNMMHSRRSSFNSHAPTEPISRRASLVVSPYMSPRRLSTSQSVHYHPQHQYYLNPIASPNCKTDHANDKITHTRTFLDMQKFANKHPWSREDDEVLLNNTKDKQNHLSPLEISIVLPNNRSELEIQQRMDYLKRKGRVSGFHTNEGCKDEEEEDDIDPLHKENGINTPSQQSQNYGMLEAKHDNPKSSELSSMTSANDIRNEQDELPGINSIFKNIF
B4: ASH1 (S. cerevisiae) (protein, UniProt P34233 1-588)
chain: MSSLYIKTPLHALSAGPDSHANSSYYDNLLLPSFSNLSSNISRNNITTDNNINSASPRKYSFHSLNVSPILSPISLANEILGKKSNTAPASPHHMDYNPISSLTPGNSPEFNKASLSQISFTNPLNYGSGLGFSSNSQPRLPLLDRLSSVSLSKRPERPQQSLPSLRHLQLLPSPLLQENAARFPDTSKRTSNWKTDLTHWCKDTNYQDYVKIREEVAHFKPLSIPNLTNNQNNDSFNYGKELESTRSSKFHSPSKESFDRTKLIPSILEAKDQFKDLSNNAWSITPPVTPPMSPPTNRTMERTTLRGVEASFFEGKSSNNDSIFNPIISEKLVQEVKHQRQLRGNSFPMPNASHKKTNSFKALQIKKLLANRDILSNNSKSNVRKPSKNKISKQASNVFGNTARQLVMKLDNASYSSVSASSSPSPSTPTKSGKMRSRSSSPVRPKAYTPSPRSPNYHRFALDSPPQSPRRSSNSSITKKGSRRSSGSSPTRHTTRVCVSCHSSDSPCWRPSWSPRKQDQLCNSCGLRYKKTHTRCLNDLCRKIPTKGEINIMKSNGIDKEFVPERNCEIEGYRCLFCNYITETVEN
B5: Sc_Snt2p (protein, UniProt P53127 1-1403)
chain: MPKEEDFQLPRRREAAKNVNYNEMEIDTKLVQQIQIAEKSGAKTKGSNSQTPRNCKRTSNPASRNEKFKYQKFLHDKNTCWNFIPTLPPSFRKNSRFSNILDLDDAMIDLKKMSLFNTESVLLSANDTIYMISEPAGEPYYVGRVVNFVSKPEFSNTIHEAIKTTSVFPAKFFQVRMNWFYRPRDIQEHVNTFNPRLVYASLHQDICPISSYRGKCSIFHKDEVFDVLPNEKECIIRPNIFYFDELFDRYTLKYYKVYSTDKILNKWNSKSPFLYVLNRRFRYIYTEPKYPLENVLKKYVFHELEVNELSPADYQWDKRCQFCKEWCIQKESLSCDECGVCAHLYCMDPPLDRKPNKDVVWTCFSCLQKQQGTKDSHVRFLEEQALELDFIRSVRQKIEEISSKAIKENVGYNTENCWFQYLGIYSISHIGDALNDSMFFPYPFKPSRVGVKYQWNGCNHNVPWRRNSYISANSEEERGSTKTSELAWVLDASKITTRKLSEYIEQCKSEICPILNVRGETCNFIDVVLKNLLFTNYDTAEAFKKCKRELSRKFLKEPSFTAVEIRKFEEAVEKFGSELRPVCEYVGTQPMSMIVRFYYNWKKTERGLTVRGKLSKLSKNKRKKEIANHENDVETKYIDDSSFDTEKLSLAESSFQCMFCKTDYSPMWYRVTGGSDDEKIKIRMQTGVNEKTEISEKSPAHSKKNEKLGALCIRCARMWRRYAIKWVPPLETLRKITGTCQNSFYSAIEGIIEENNTNKFTLSPFQAHNKLLEWELVQDSELIIRQRMKVYKNPNSFVKMKRYSMTFHTQLYKMAVRSYRKNEFHPETMQRDLELFIEDNKEVRKAIPEQKPERAKNTKDEFPVNIIRQSPGTIKTSDTSRNRKCNDVFIEKASNNNIPKITNASNDLIEISIKTGGSSSGSVSVDKGFKFVKFDNKTFQRLRNSLKLVNNKLPKYNEPSTKKIKMINDIALSNPLNEPNGASYNYTVISHSKETSVALEKYHDGNKPSKMLEKDMILKHTKNKPKNPDTAWANNSARTFCSVCKEKFNDNDNYEVVCGNCGLTVHYFCYAIKLPKDMKKNTNLKTFKWLCDPCSNDLNPIISTTYQCSMCPTKDYDYDRYRSQSFKICPDALKCTSLGTWVHLVCSLFNEDIKYGNGQSMQPALNTTAVLIKHSRFTCGVCRINGGGLVKCNKCQYRYHITCAQNSSNFKLMFEKKNMSVDTTLPCIKDVKLNDTYTLRPILICDRHDISLEGNELYPLSYKPQHTLSYIEQYCRYYKCESDHSLVELRYFEQLRLRHGEMPGNSHDSAIKPKIYVLPFERTCPHCGTNKSLYWYEDIICHSCNLRSGAQELDFDSASANISNDNGLPVEITQQLMEGIEPAMFDIDISEAGTDKNTHPSSQ
B6: YAF9 (S. pombe) (protein, UniProt Q10319 1-217)
chain: MAPNTRVSKCQISRPILVGNDAKPLTKEEKEKAPTDHTHTWRIFVEGVDGEDISKWVRKVVFKLHDTYNNPTRTIESPPFEVIETGWGEFDIMVRIFFAPEAHEKALTFYHHLKLHPYGPRMEEMKASGGLVESVQYEEIVFNEPFEYTYKLLSQNPIGDGHGLAVESEPDHPFSQQLEQDEADKLDFAIQEVKKTIEMYKQQVQSLQGQKSSTPVE
B7: Clr6p (S. pombe) (protein, UniProt O59702 1-405)
chain: MGFGKKKVSYFYDEDVGNYHYGPQHPMKPHRVRMVHNLVVNYNLYEKLNVITPVRATRNDMTRCHTDEYIEFLWRVTPDTMEKFQPHQLKFNVGDDCPVFDGLYEFCSISAGGSIGAAQELNSGNAEIAINWAGGLHHAKKREASGFCYVNDIALAALELLKYHQRVLYIDIDVHHGDGVEEFFYTTDRVMTCSFHKFGEYFPGTGHIKDTGIGTGKNYAVNVPLRDGIDDESYESVFKPVISHIMQWFRPEAVILQCGTDSLAGDRLGCFNLSMKGHSMCVDFVKSFNLPMICVGGGGYTVRNVARVWTYETGLLAGEELDENLPYNDYLQYYGPDYKLNVLSNNMENHNTRQYLDSITSEIIENLRNLSFAPSVQMHKTPGDFTFENAEKQNIAKEEIMDERV

Key:
[1] = molecular target: T1, Sp_Alp13p (S. pombe); assay: affinity purification with mass spectrometry; TAP of baits TAP-tagged at their genes from S. pombe extracts; eluates on 6-18% gels, Coomassie, bands and slices identified by MALDI peptide mapping and LC-MS/MS; common background removed, A-index cut-off 1.75
[2] = molecular target: T2, YAF9 (S. pombe) (S. pombe); assay: as above
[3] = molecular target: T3, Sc_Rpd3p (S. cerevisiae); assay: affinity purification with mass spectrometry; TAP of baits TAP-tagged at their genes from S. cerevisiae extracts; eluates on 6-18% gels, Coomassie, bands and slices identified by MALDI peptide mapping and LC-MS/MS; common background removed, A-index cut-off 1.75

Binder | binding [1] | binding [2] | binding [3]
B1 | binds | binds | –
B2 | – | – | binds
B3 | – | – | binds
B4 | – | – | binds
B5 | – | – | binds
B6 | binds | – | –
B7 | binds | – | –

Source: paper PMC2614481
